{"sequences": {"note": "The chains behind the UniProt entries cited, without tags or fusion partners. Where a name states a change or a piece, a line headed by the entry shows the natural chain unless it says otherwise.", "UniProt Q9UNQ0": "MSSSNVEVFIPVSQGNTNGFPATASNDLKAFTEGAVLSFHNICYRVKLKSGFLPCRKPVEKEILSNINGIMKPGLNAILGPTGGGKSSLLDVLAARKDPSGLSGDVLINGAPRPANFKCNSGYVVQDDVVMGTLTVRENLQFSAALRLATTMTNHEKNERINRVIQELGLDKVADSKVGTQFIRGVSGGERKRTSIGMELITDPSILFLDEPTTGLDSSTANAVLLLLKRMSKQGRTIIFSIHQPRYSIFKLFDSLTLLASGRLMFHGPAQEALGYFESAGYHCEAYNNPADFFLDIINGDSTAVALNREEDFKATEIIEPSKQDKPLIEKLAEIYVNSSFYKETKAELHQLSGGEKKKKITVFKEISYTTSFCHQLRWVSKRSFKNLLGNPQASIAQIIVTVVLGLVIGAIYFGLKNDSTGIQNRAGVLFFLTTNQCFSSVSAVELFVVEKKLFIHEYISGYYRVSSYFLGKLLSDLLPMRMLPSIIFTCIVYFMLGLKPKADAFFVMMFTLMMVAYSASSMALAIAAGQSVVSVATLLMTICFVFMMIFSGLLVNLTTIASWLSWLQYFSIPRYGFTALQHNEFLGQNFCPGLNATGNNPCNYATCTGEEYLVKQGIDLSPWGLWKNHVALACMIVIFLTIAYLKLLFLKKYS"}, "source": "PubChem BioAssay (EPA / NIEHS)", "note": "Values joined by “and” are separate entries in the source; they are usually repeats but may differ in a detail not shown here. Equal values may be shown once. This list was built around the results that the source calls inconclusive (neither active nor inactive); the mix of calls is not that of the screen. Potencies beside an inconclusive call are fits to weak or partial responses and may not hold up. Active and inactive are the calls of the source. How the source made its calls: active means hit-call score of the fitted dose curve at least 0.9, where 1 is the maximum; inconclusive means response in the unintended direction; inactive means score below 0.9."}
{"read-out": "Broad substrate specificity ATP-binding cassette transporter ABCG2 (Homo sapiens) (UniProt Q9UNQ0)", "experiment": "CLD_ABCG2_24hr: CellzDirect (CLD) Gene Expression Assay for ABC Transporter (ABCG2) at 24 hours (AID 2283685)", "experimental": "CLD_24hr is a cell-based, multiplexed-readout assay that uses hepatocyte, a human liver primary cell, with measurements taken at 24 hours after chemical dosing in a 96-well plate.CLD_ABCG2_24hr is one of 16 assay component(s) measured or calculated from the CLD_24hr assay. It is designed to make measurements of mRNA induction, a form of inducible reporter, as detected with chemiluminescence signals by Quantitative Nuclease Protection Assay (qNPA) technology.Data from the assay component CLD_ABCG2_24hr was analyzed at the endpoint, CLD_ABCG2_24hr, in the positive analysis fitting direction relative to DMSO as the negative control and baseline of activity. Using a type of inducible reporter, gain-of-signal activity can be used to understand changes in the reporter gene as they relate to the gene ABCG2. Furthermore, this assay endpoint can be referred to as a primary readout. To generalize the intended target to other relatable targets, this assay endpoint is annotated to the transporter intended target family, where subfamily is ABC transporter.\nHuman hepatocyte cultures were treated daily for two consecutive days with fresh dosing solutions containing appropriate concentrations of the 320 ToxCast chemicals (chemical identities were blinded to CellzDirect and other ToxCast collaborators), vehicle control (0.2% DMSO), and positive control inducers as summarized in Table 1. Due to the large number of treatment groups and chemicals examined, the ToxCast chemicals were divided into two groups (spanning two independent cultures of hepatocytes from separate donor preparations (Hu778: ToxCast plates 1 and 2; Hu776: ToxCast plates 3 and 4). Each preparation of human hepatocyte cultures was treated with respective vehicle control, medium only control, set of six positive controls/reference chemicals for the five hepatic receptor pathways, and a subset of eight of the ToxCast chemicals (indoxacarb, pyrithiobac-sodium, norflurazon, cyhalofop-butyl, methomyl, thiram, acetochlor, and propiconazole). These replicate data, coupled with internal replicates designed within the blinded ToxCast chemical library, provided additional data to evaluate interindividual differences between hepatocyte preparations and their potential impact on chemical profiles.Cell morphology and integrity were evaluated using phase-contrast microscopy as an indicator of hepatocyte cell health (Tyson & Green, 1987). Cultures for each treatment group (i.e., media, vehicle [0.2% DMSO], positive control inducers [multiple concentrations], and the ToxCast chemicals [multiple concentrations]) were observed and cell morphology was assessed relative to vehicle control cultures at each harvest time point (0, 6, 24, or 48 h). […] Images were evaluated at the conclusion of the study to assess changes in cell integrity and account for the effects of chemical exposure on uncharacteristic changes in concentration-dependent gene expression profiles. The results from these determinations of apparent cytotoxicity were annotated (yes/no) alongside the corresponding qNPA data for reference.At the conclusion of each treatment period, hepatocyte cultures (96-well) were washed with 1 volume of HBSS, lysed by addition of 25 ul ArrayPlate lysis buffer (HTG, Tucson, AZ), and 70 ul/well of Denaturation Oil, denatured by incubation at 95C for 10 min, and frozen at approximately -70C until analysis by nuclease protection assay (qNPA) (Roberts et al., 2007). For qNPA analysis, cell lysates were thawed at 50C for approximately 30 min, qNPA probes were added, and samples were incubated at 95C for 10 min to begin the detection process by denaturing the target RNA, dissociating the duplexes and secondary structure hybridization. At the conclusion of the hybridization period, S1 nuclease reagent was added to each sample to digest all nonprotected nucleotides at 50C for 60-90 min. […]"}
{"smiles": "CCC(=O)Nc1ccc(Cl)c(Cl)c1", "AC50": "inconclusive: 20 µM"}
{"smiles": "COCc1cnc(C2=NC(C)(C(C)C)C(=O)N2)c(C(=O)O)c1", "note": "(stereo not given)", "outcome": "inactive"}
{"smiles": "CC1=C(C(=O)Nc2ccccc2)SCCO1", "AC50": "inconclusive: 20 µM"}
{"smiles": "C#CC(C)(C)NC(=O)c1cc(Cl)cc(Cl)c1", "outcome": "inactive"}
{"smiles": "O=P(O)(O)CCCl", "AC50": "inconclusive: 0.00536 µM"}
{"smiles": "CCCOc1nn(C(=O)NS(=O)(=O)c2ccccc2C(=O)OC)c(=O)n1C", "AC50": "inconclusive: 0.000917 µM"}
{"smiles": "CC1COC(Cn2cncn2)(c2ccc(Oc3ccc(Cl)cc3)cc2Cl)O1", "note": "(stereo not given)", "outcome": "inactive"}
{"smiles": "O=C(O)c1cc(Oc2ccc(C(F)(F)F)cc2Cl)ccc1[N+](=O)[O-]", "AC50": "inconclusive: 20 µM"}
{"smiles": "CCCCOCN(C(=O)CCl)c1c(CC)cccc1CC", "AC50": "inconclusive: 0.0884 µM"}
{"smiles": "CCCCC(CC)COC(=O)c1ccccc1C(=O)OCC(CC)CCCC", "note": "(stereo not given)", "AC50": "inconclusive: 20 µM"}
{"smiles": "O=C(O)c1nc(Cl)ccc1Cl", "AC50": "inconclusive: 3.97 µM and inconclusive: 20 µM"}
{"smiles": "CCOP(=S)(OCC)Oc1ccc2c(C)c(Cl)c(=O)oc2c1", "AC50": "inconclusive: 20 µM"}
{"smiles": "Fc1ccc(Oc2ccnc3cc(Cl)cc(Cl)c23)cc1", "outcome": "inactive"}
{"smiles": "CCC(C)Nc1c([N+](=O)[O-])cc(C(C)(C)C)cc1[N+](=O)[O-]", "note": "(stereo not given)", "AC50": "inconclusive: 0.00391 µM"}
{"smiles": "CCc1cccc(C)c1N(C(=O)CCl)C(C)COC", "note": "(stereo not given)", "AC50": "inconclusive: 20 µM"}
{"smiles": "CNC(=O)CSP(=S)(OC)OC", "AC50": "inconclusive: 0.0685 µM"}
{"smiles": "CCOP(=S)(OCC)Oc1nc(Cl)n(C(C)C)n1", "outcome": "inactive"}
{"smiles": "COC(=O)NS(=O)(=O)c1ccc(N)cc1", "AC50": "inconclusive: 20 µM"}
{"smiles": "CS/C(C)=N/OC(=O)N(C)SN(C)C(=O)O/N=C(\\C)SC", "outcome": "inactive"}
{"smiles": "COP(=O)(NC(C)=O)SC", "note": "(stereo not given)", "AC50": "inconclusive: 20 µM"}
{"smiles": "CC(C)N(C(=O)SCC(Cl)=C(Cl)Cl)C(C)C", "outcome": "inactive"}
{"smiles": "C=CCC1=C(C)[C@@H](OC(=O)[C@@H]2[C@@H](C=C(C)C)C2(C)C)CC1=O", "outcome": "inactive"}
{"smiles": "CCOP(=S)(OCC)Oc1ccc([N+](=O)[O-])cc1", "AC50": "inconclusive: 20 µM"}
{"smiles": "CCOP(=O)(NC(C)C)Oc1ccc(SC)c(C)c1", "note": "(stereo not given)", "AC50": "inconclusive: 20 µM"}
{"smiles": "CCS(=O)(=O)c1cccnc1S(=O)(=O)NC(=O)Nc1nc(OC)cc(OC)n1", "outcome": "inactive"}
{"smiles": "CCNc1nc(Cl)nc(NC(C)(C)C#N)n1", "AC50": "inconclusive: 0.0004 µM"}
{"smiles": "CNc1cnn(-c2cccc(C(F)(F)F)c2)c(=O)c1Cl", "AC50": "inconclusive: 20 µM"}
{"smiles": "CCCSP(=O)(OCC)Oc1ccc(Br)cc1Cl", "note": "(stereo not given)", "outcome": "inactive"}
{"smiles": "CN(C)[C@@H]1C(=O)C(C(N)=O)=C(O)[C@@]2(O)C(=O)C3=C(O)c4c(O)cccc4[C@@](C)(O)[C@H]3[C@H](O)[C@@H]12", "AC50": "inconclusive: 20 µM"}
{"smiles": "CON=C(C(=O)OC)c1ccccc1CON=C(C)c1cccc(C(F)(F)F)c1", "outcome": "inactive"}
{"smiles": "CCNc1nc(Cl)nc(NC(C)C)n1", "AC50": "inconclusive: 1.9 µM"}
{"smiles": "COC(=O)N(OC)c1ccccc1COc1ccn(-c2ccc(Cl)cc2)n1", "outcome": "inactive"}
{"smiles": "CCOP(=S)(OCC)Oc1cc(C)nc(C(C)C)n1", "AC50": "inconclusive: 20 µM"}
{"smiles": "Cc1cc(C)nc(NC(=O)NS(=O)(=O)c2ccccc2C(=O)OC2COC2)n1", "outcome": "inactive"}
{"smiles": "Cc1ccccc1CO[C@@H]1C[C@@]2(C(C)C)CC[C@]1(C)O2", "AC50": "inconclusive: 20 µM"}
{"smiles": "CNC(=O)/C=C(\\C)OP(=O)(OC)OC", "AC50": "inconclusive: 0.296 µM"}
{"smiles": "Nc1nc(N)nc(NC2CC2)n1", "outcome": "inactive"}
{"smiles": "CC(C)[C@H](C(=O)O[C@H](C#N)c1cccc(Oc2ccccc2)c1)c1ccc(Cl)cc1", "AC50": "inconclusive: 20 µM"}
{"smiles": "CC(C1CC1)C(O)(Cn1cncn1)c1ccc(Cl)cc1", "note": "(stereo not given)", "AC50": "inconclusive: 0.000598 µM"}
{"smiles": "CCOP(=O)(SC(C)CC)N1CCSC1=O", "note": "(stereo not given)", "outcome": "inactive"}
